Test results as given in the supplement of paper PMC10849652.
The other results are listed elsewhere or left out.

Sequences of proteins named here, by UniProt entry; tags and fusion partners are left off. A change or cut given only in a name is not applied to a line headed by its entry.
UniProt P30304: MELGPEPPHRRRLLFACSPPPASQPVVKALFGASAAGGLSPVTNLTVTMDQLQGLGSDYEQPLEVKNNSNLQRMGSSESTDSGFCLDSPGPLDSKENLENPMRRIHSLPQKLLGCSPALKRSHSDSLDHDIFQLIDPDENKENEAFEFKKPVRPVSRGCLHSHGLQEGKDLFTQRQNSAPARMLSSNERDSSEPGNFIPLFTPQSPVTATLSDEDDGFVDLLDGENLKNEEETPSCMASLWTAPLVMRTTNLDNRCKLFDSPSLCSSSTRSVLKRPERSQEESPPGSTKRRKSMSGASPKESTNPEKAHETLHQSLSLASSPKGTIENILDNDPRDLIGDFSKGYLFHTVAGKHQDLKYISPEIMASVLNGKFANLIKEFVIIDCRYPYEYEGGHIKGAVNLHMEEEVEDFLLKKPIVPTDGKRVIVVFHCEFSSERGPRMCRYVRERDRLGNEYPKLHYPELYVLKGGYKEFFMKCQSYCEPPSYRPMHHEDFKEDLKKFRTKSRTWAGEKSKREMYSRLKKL
UniProt Q92526, whole entry, looked up: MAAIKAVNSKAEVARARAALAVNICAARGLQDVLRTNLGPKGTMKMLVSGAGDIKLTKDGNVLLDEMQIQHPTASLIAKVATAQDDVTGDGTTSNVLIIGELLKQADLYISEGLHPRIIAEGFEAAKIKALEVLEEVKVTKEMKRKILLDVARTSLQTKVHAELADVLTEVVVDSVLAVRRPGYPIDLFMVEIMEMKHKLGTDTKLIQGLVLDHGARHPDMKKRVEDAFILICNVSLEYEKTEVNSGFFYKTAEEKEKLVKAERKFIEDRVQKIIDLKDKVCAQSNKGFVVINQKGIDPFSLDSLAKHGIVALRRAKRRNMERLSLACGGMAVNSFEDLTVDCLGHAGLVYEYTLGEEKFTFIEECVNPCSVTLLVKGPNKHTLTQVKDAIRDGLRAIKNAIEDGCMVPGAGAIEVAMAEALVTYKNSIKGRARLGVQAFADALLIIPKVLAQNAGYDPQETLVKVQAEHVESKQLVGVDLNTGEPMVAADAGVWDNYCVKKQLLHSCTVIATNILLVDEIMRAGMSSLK
UniProt Q12834, whole entry, looked up: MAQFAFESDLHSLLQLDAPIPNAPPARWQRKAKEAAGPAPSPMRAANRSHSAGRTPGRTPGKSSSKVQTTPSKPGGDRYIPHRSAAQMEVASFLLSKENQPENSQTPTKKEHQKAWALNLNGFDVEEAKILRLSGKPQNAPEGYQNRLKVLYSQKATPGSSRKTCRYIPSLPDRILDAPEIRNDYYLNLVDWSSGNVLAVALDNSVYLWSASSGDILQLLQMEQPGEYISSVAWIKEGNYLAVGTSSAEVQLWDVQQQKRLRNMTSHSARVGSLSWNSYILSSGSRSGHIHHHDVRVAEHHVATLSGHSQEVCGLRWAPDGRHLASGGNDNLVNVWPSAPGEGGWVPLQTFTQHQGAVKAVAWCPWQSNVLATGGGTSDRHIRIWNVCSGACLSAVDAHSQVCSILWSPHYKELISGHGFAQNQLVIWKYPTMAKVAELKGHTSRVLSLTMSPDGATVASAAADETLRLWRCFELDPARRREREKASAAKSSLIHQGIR
UniProt Q07108: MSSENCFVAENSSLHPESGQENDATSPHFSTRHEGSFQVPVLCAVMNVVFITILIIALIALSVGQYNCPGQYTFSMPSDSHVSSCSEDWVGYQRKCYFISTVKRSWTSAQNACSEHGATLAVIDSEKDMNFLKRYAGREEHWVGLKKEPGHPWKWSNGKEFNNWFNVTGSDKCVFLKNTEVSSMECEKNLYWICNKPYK
UniProt Q8IWP9: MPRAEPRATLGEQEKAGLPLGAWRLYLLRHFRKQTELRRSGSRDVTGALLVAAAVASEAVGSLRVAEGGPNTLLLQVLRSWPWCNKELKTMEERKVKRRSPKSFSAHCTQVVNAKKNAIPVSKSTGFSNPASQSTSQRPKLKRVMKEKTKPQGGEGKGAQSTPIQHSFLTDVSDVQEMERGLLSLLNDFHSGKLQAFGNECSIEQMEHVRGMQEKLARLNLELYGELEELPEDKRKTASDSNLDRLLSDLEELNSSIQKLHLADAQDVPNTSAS
UniProt P33681, whole entry, looked up: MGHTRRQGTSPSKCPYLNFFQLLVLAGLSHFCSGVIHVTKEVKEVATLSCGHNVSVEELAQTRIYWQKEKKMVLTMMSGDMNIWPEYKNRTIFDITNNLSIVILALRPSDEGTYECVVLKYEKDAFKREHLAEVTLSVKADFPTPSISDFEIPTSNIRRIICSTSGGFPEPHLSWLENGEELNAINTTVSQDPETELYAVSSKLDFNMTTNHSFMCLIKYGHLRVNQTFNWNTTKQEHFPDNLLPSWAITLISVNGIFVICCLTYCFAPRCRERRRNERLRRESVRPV
UniProt Q9P0B6: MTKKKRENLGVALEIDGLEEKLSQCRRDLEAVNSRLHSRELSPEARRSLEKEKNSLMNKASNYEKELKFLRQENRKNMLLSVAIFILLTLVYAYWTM
UniProt P51636: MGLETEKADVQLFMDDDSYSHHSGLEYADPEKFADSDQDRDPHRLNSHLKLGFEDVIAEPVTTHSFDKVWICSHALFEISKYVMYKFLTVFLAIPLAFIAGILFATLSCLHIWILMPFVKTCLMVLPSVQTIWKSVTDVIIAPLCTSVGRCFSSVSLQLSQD
UniProt P0C221: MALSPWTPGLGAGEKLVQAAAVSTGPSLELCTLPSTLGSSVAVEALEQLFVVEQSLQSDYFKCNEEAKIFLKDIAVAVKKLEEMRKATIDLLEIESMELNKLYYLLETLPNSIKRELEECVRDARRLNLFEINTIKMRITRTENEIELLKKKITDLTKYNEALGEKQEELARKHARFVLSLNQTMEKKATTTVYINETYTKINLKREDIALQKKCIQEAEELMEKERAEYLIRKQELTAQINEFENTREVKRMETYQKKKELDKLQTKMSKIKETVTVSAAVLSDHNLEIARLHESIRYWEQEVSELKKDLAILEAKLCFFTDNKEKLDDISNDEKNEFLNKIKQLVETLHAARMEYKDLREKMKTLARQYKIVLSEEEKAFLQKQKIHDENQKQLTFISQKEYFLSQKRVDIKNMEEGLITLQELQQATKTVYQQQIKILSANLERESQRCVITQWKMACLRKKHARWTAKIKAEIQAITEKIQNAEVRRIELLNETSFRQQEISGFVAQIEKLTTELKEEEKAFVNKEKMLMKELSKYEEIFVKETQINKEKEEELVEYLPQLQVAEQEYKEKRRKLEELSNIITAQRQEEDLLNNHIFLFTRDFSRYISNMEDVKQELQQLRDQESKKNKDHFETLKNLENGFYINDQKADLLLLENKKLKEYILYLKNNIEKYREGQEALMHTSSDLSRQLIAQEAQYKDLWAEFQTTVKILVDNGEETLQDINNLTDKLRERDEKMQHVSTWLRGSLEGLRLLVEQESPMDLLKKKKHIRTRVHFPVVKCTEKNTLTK

Columns and labels:
Experiment in all cases: log2 fold change, soluble protein after heating vs DMSO (PISA); higher = thermal stabilisation; K562 cells, 10 uM, 30 min; active = over 0.2 and 3.5 SD of the protein, either way, in both replicates (recomputed)
[1] = compound: COC1=CC=C(C=C1)CN2C=CC3=C2C=C(C=C3)C(=O)NO
Method in brief: (§1)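 For each measurement, 10 μM compound was applied for 30 min to K562 cells at 2×10^6 cells/mL. Aliquots were heated for 3 min across 48°C-58°C, pooled, and extracted in PBS with 0.5% NP-40 at 4°C; the supernatant after 21,000xg for 90 min was soluble protein. This was quantified by TMTpro 16plex LC-MS/MS with channel sums equalised, and thermal stability was reported relative to control samples from duplicates, on a log2 fold-change scale.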

[2] = compound: CON(C)C(=O)N1N=C(c2cc(F)ccc2F)S[C@@]1(CCCN)c1ccccc1 [filanesib]
Method in brief: as §1

[3] = compound: COc1cc(Nc2ncc3c(n2)-c2ccc(Cl)cc2C(c2c(F)cccc2OC)=NC3)ccc1C(=O)O [alisertib]
Method in brief: as §1

[4] = compound: COc1cc2ncnc(Nc3ccc(F)c(Cl)c3)c2cc1OCCCN1CCOCC1 [gefitinib]
Method in brief: as §1

[5] = compound: COc1cccc2cc(-c3nc([C@H]4CC[C@H](C(=O)O)CC4)n4ncnc(N)c34)[nH]c12
Method in brief: as §1

[6] = compound: CS(=O)(=O)c1ccc(-c2cnc(N)c(C(=O)Nc3ccccc3)n2)cc1
Method in brief: as §1

[7] = compound: C[C@@H]1COCCN1C2=NC(=NC(=C2)C3(CC3)S(=O)(=O)C)C4=C5C=CNC5=CC=C4
Method in brief: as §1

[8] = compound: Cc1ccc(-n2nc(C(C)(C)C)cc2NC(=O)Nc2ccc(OCCN3CCOCC3)c3ccccc23)cc1 [doramapimod]
Method in brief: as §1

[9] = compound: CO[C@H]1C[C@@H]2CC[C@@H](C)[C@@](O)(O2)C(=O)C(=O)N2CCCC[C@H]2C(=O)O[C@H]([C@H](C)C[C@@H]2CC[C@H](n3cnnn3)[C@H](OC)C2)CC(=O)[C@H](C)/C=C(\C)[C@@H](O)[C@@H](OC)C(=O)[C@H](C)C[C@H](C)/C=C/C=C/C=C/1C [zotarolimus]
Method in brief: as §1

[10] = compound: COc1cc(C(=O)O)ccc1NC(=O)[C@@H]1N[C@@H](CC(C)(C)C)[C@](C#N)(c2ccc(Cl)cc2F)[C@H]1c1cccc(Cl)c1F [idasanutlin]
Method in brief: as §1

[11] = compound: COc1cc2nc(-c3cc(F)ccc3O)nc(N[C@@H]3CNC[C@H]3C(C)(C)O)c2cc1OC
Method in brief: as §1

[12] = compound: CS(=O)(=O)CCNCc1ccc(-c2ccc3ncnc(Nc4ccc(OCc5cccc(F)c5)c(Cl)c4)c3c2)o1 [lapatinib]
Method in brief: as §1

[13] = compound: C[C@@H](Oc1cc(-c2cnn(C3CCNCC3)c2)cnc1N)c1c(Cl)ccc(F)c1Cl [crizotinib]
Method in brief: as §1

[14] = compound: C[C@H](C1=CC=C(C=C1)C(=O)NC2=C3C=CNC3=NC=C2)N
Method in brief: as §1

[15] = compound: C[C@H](Nc1ncnc2nc[nH]c12)c1cc2cccc(Cl)c2c(=O)n1-c1ccccc1 [duvelisib]
Method in brief: as §1

[16] = compound: Cc1cc(Nc2cc(N3CCN(C)CC3)nc(Sc3ccc(NC(=O)C4CC4)cc3)n2)n[nH]1 [tozasertib]
Method in brief: as §1

[17] = compound: Cc1cc(SCc2sc(-c3ccc(C(F)(F)F)cc3)nc2C)ccc1OCC(=O)O
Method in brief: as §1

[18] = compound: CS(=O)(=O)N1CCN(Cc2cc3nc(-c4cccc5[nH]ncc45)nc(N4CCOCC4)c3s2)CC1 [pictilisib]
Method in brief: as §1

[19] = compound: Cc1cc(Nc2cc(CN3CCOCC3)c3nc(C)c(Cc4ccc(Cl)cc4F)n3n2)n[nH]1 [gandotinib]
Method in brief: as §1

[20] = compound: Cc1ccc(C(=O)N(CCCN)[C@@H](c2nc3cc(Cl)ccc3c(=O)n2Cc2ccccc2)C(C)C)cc1 [ispinesib]
Method in brief: as §1

Measured: log2 fold change

CDC25A (UniProt P30304)
inactive: [1] -0.081 | [2] -0.052 | [3] 0.07 | [4] -0.023 | [5] 0.093 | [6] 0.013 | [7] 0.149 | [8] -0.12

CCT6B isoform 3 (UniProt Q92526)
inactive: [1] -0.213 | [2] 0.158 | [9] -0.011 | [10] -0.238 | [11] 0.146 | [12] 0.045 | [6] 0.235 | [13] 0.055 | [14] 0.076 | [15] 0.194 | [16] -0.23 | [17] -0.043 | [8] -0.062

CDC20 (UniProt Q12834)
inactive: [1] 0.038 | [2] -0.044 | [9] -0.075 | [10] 0.074 | [3] -0.285 | [11] -0.119 | [5] 0.058 | [12] 0.144 | [18] -0.006 | [6] 0.017 | [13] 0.009 | [7] 0.039 | [14] -0.228 | [15] 0.014 | [19] 0.015 | [16] 0.023 | [17] 0.036 | [8] -0.074 | [20] -0.057

CD69 (UniProt Q07108)
inactive: [1] 0.11 | [2] 0.13 | [9] -0.099 | [3] -0.04 | [11] 0.155 | [4] 0.076 | [5] 0.061 | [12] -0.044 | [18] -0.057 | [6] -0.015 | [13] -0.036 | [7] -0.13 | [14] 0.373 | [19] -0.035 | [8] -0.188

CDC37 (UniProt K7EL68)
inactive: [1] -0.054 | [2] 0.018 | [9] 0.104 | [10] -0.132 | [11] 0.021 | [4] -0.03 | [12] -0.031 | [6] -0.002 | [13] 0.056 | [7] 0.032 | [14] 0.152 | [15] 0.165 | [17] -0.139 | [8] 0.052 | [20] 0.063

CCDC28A (UniProt Q8IWP9)
inactive: [1] 0.029 | [2] 0.065 | [9] 0.057 | [10] 0.103 | [3] -0.05 | [11] -0.107 | [4] 0.011 | [5] 0.016 | [12] 0.03 | [6] 0.005 | [13] -0.06 | [7] -0.083 | [14] -0.002 | [15] 0.09 | [16] -0.004 | [17] 0.09 | [8] -0.04 | [20] 0.029

CD80 (UniProt P33681)
inactive: [2] 0.007 | [9] 0.027 | [10] 0.111 | [3] 0.12 | [11] 0.027 | [4] -0.003 | [5] -0.187 | [12] 0.088 | [18] 0.038 | [6] 0.013 | [14] -0.126 | [15] -0.028 | [19] -0.313 | [16] -0.052 | [17] 0.022 | [20] 0.044

CCDC167 (UniProt Q9P0B6)
inactive: [1] -0.054 | [2] -0.024 | [9] -0.027 | [3] -0.068 | [11] -0.148 | [4] -0.021 | [5] -0.105 | [12] 0.016 | [18] 0.047 | [6] -0.08 | [13] 0.025 | [7] 0.071 | [14] 0.135 | [19] 0.181 | [17] -0.214 | [8] 0.034
active: [20] -0.344

CAV2 (UniProt P51636)
inactive: [1] -0.046 | [2] 0.131 | [10] 0 | [3] -0.083 | [11] -0.011 | [4] 0.137 | [5] 0.026 | [12] -0.018 | [18] 0.031 | [6] -0.067 | [13] -0.087 | [19] 0.043 | [17] 0.035 | [8] 0.13

CCDC175 (UniProt P0C221)
inactive: [1] 0.06 | [9] 0.155 | [10] 0.022 | [3] -0.017 | [11] 0.084 | [4] 0.03 | [5] 0.025 | [12] -0.045 | [18] 0.036 | [13] 0.011 | [14] 0.021 | [15] 0.03 | [19] -0.049 | [17] 0.064 | [8] 0.043 | [20] -0.101
